The record followed here is the supplement of paper PMC9578143, “Small-Molecule Ebselen Binds to YTHDF Proteins Interfering with the Recognition of N^6-Methyladenosine-Modified RNAs” (ACS Pharmacology & Translational Science, 2022).

Some of the results follow. Plates or batches differ in their baseline, so values are only roughly comparable.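 Hits were defined as a z-score below −3.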 Residues, ends and D or L forms follow the SMILES beside them.

The target of this test is T1, YTHDF1 YTH domain (aa 365-554) (UniProt Q9BYJ9).
T1 sequence (whole entry): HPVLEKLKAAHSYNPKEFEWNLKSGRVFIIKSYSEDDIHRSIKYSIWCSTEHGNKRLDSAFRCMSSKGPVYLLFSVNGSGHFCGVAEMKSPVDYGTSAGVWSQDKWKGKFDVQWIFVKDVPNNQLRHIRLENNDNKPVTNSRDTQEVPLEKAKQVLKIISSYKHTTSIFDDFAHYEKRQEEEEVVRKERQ
Put plainly: tryptophan fluorescence intensity z-score (mean); higher = higher fluorescence, less quenching (negative = binding / quenching). The settings on record: 10 µM.
For the compound `O=C(O)Cc1cc(I)c(Oc2cc(I)c(O)c(I)c2)c(I)c1` (plate: M 21-22), the “tryptophan fluorescence intensity z-score” value was inactive: 0.254.

For the compound `COc1ccc(C(=O)CC(=O)c2ccc(C(C)(C)C)cc2)cc1` (plate: M 9-10), the “tryptophan fluorescence intensity z-score” value was inactive: -0.193. On to `CC1(C)C(=O)C=CC2(C)C1C=CC1(C)C2CCC2(C)C(c3ccoc3)OC(=O)C3OC312` (centres undefined) (plate: M 13-14), for which the “tryptophan fluorescence intensity z-score” value was inactive: 0.73. In the case of `COc1ncnc(NS(=O)(=O)c2ccc(N)cc2)c1OC` (plate: M 13-14), the “tryptophan fluorescence intensity z-score” value is inactive: 0.0622. Consider `CC(=O)OCC(=O)[C@@]1(O)[C@H](C)C[C@H]2[C@@H]3CCC4=CC(=O)C=C[C@]4(C)[C@@]3(F)[C@@H](O)C[C@@]21C` (plate: M 3-4), for which the “tryptophan fluorescence intensity z-score” value was inactive: 0.138.

For `C#CCCCCCCCCCCCC(O)CC(O)COC(C)=O` (centres undefined) (plate: M 15-16), the “tryptophan fluorescence intensity z-score” value is inactive: 0.317. In the case of `COc1c(N2C[C@@H]3CCCN[C@@H]3C2)c(F)cc2c(=O)c(C(=O)O)cn(C3CC3)c12` (plate: M 9-10) it was inactive: -1.2; in that of `COc1ccc(C(=O)c2ccccc2)c(O)c1` (plate: M 3-4), inactive: -0.261; in that of `O=c1cc(-c2ccccc2O)oc2cc(O)ccc12` (plate: M 17-18), inactive: 0.154. Regarding `CC(C)NCC(O)c1ccc(O)c(O)c1` (centres undefined) (plate: M 3-4), the “tryptophan fluorescence intensity z-score” value was inactive: -0.145. `NCCSSCCN` (plate: M 21-22): the “tryptophan fluorescence intensity z-score” value is inactive: 0.461. The figure for `CC1(C)C(=O)[C@H]2C[C@]3(O)C4=CC(=O)O[C@@H](c5ccoc5)[C@@]4(C)CCC3[C@](C)(C2=O)[C@H]1CC(=O)O` (some centres undefined) (plate: M 13-14) is inactive: 0.797. For the compound `CC(C)=CC1C(CO)C1(C)C` (centres undefined) (plate: M 17-18), the “tryptophan fluorescence intensity z-score” value was inactive: 0.299. Turning to `Cc1occc(=O)c1O` (plate: M 17-18), the “tryptophan fluorescence intensity z-score” value is inactive: 0.199. For the compound `C#C[C@]1(O)CC[C@H]2[C@@H]3CCc4cc(O)ccc4[C@H]3CC[C@@]21C` (plate: M 3-4), the “tryptophan fluorescence intensity z-score” value was inactive: -0.263. Take `CCC(C(N)=O)c1ccccc1` (centres undefined) (plate: M 23-24): the “tryptophan fluorescence intensity z-score” value was inactive: 0.586. For `CCOc1cc(CC(=O)N[C@@H](CC(C)C)c2ccccc2N2CCCCC2)ccc1C(=O)O` (plate: M 13-14), the “tryptophan fluorescence intensity z-score” value was inactive: 0.408. Turning to `COc1cc2c(cc1OC)C1(O)C(=O)c3ccc(O)c(C(=O)O)c3OC1CO2` (centres undefined) (plate: M 15-16), the “tryptophan fluorescence intensity z-score” value was inactive: 0.136. Take `CO[C@H]1O[C@H](CO)C(O[C@@H]2OC(C(=O)O)[C@@H](O[C@H]3O[C@H](COS(=O)(=O)O)C(O[C@@H]4OC(C(=O)O)[C@@H](O[C@H]5O[C@H](CO)C(O[C@@H]6OC(C(=O)O)[C@@H](O[C@H]7O[C@H](COS(=O)(=O)O)C(O[C@@H]8OC(C(=O)O)=C[C@H](O)C8OS(=O)(=O)O)[C@H](O)[C@H]7NC(C)=O)[C@H](O)[C@H]6O)[C@H](O)[C@H]5NC(C)=O)[C@H](O)[C@H]4O)[C@H](O)[C@H]3NC(C)=O)[C@H](O)[C@H]2O)[C@H](O)[C@H]1NC(C)=O` (some centres undefined) [ENOXAPARINSODIUM(1%wt/volin10%aqDMSO)] (plate: M 9-10): the “tryptophan fluorescence intensity z-score” value was inactive: -0.121. The figure for `CC1(C)CC23C(=O)CCC(O)C2(C)CCC13` (centres undefined) (plate: M 21-22) is inactive: 0.42. As to `O=NN(CCCl)C(=O)NCCCl` (plate: M 13-14), the “tryptophan fluorescence intensity z-score” value was inactive: 0.544. Regarding `CCOC(=O)c1ncn2c1CN(C)C(=O)c1cc(F)ccc1-2` (plate: M 11-12), the “tryptophan fluorescence intensity z-score” value was inactive: -0.132.

For the compound `CC(C(=O)O)c1cccc(C(=O)c2ccccc2)c1` (centres undefined) (plate: M 7-8), the “tryptophan fluorescence intensity z-score” value is inactive: -0.142. In the case of `CC(C)c1c(O)ccc2c1CC[C@H]1C(C)(C)CCC[C@]21C` (plate: M 13-14), the “tryptophan fluorescence intensity z-score” value was inactive: 0.373.

On to `CCCC1O[C@@H]2C[C@H]3[C@@H]4CCC5=CC(=O)C=C[C@]5(C)[C@H]4[C@@H](O)C[C@]3(C)[C@]2(C(=O)CO)O1` (some centres undefined) (plate: M 5-6), for which the “tryptophan fluorescence intensity z-score” value is inactive: 0.0138.

`O=C(CCc1ccc(O)cc1)c1c(O)cc(O)cc1O[C@@H]1OC(CO)[C@@H](O)[C@@H](O)C1O` (some centres undefined) (plate: M 17-18): the “tryptophan fluorescence intensity z-score” value is inactive: -0.259. The figure for `NCCNCCNCCN` (plate: M 11-12) is inactive: -0.384; for `CN(C)CCCSC(=N)N` (plate: M 23-24) it is inactive: 0.166; for `CCN1CCCC(OC(=O)C(c2ccccc2)c2ccccc2)C1` (centres undefined) (plate: M 7-8) it is inactive: 0.131.

On to `O=C(O)c1ccc(S(=O)(=O)N(Cl)Cl)cc1` (plate: M 3-4), for which the “tryptophan fluorescence intensity z-score” value is inactive: -0.0962. With `O=C(Oc1ccccc1C(=O)O)c1ccccc1O` (plate: M 1-2), the “tryptophan fluorescence intensity z-score” value is inactive: 0.17. As for `COc1c(C)c2c(c(O)c1C/C=C(\C)CCC(=O)O)C(=O)OC2` (plate: M 5-6), the “tryptophan fluorescence intensity z-score” value was inactive: 0.249.

With `O=c1c(-c2ccc(O)cc2)coc2cc(O)ccc12` (plate: M 15-16), the “tryptophan fluorescence intensity z-score” value was inactive: -0.281. On to `CC(=O)CCCCn1c(=O)c2c(ncn2C)n(C)c1=O` (plate: M 9-10), for which the “tryptophan fluorescence intensity z-score” value was inactive: 0.0649.

Turning to `CN1C(=O)OC(C)(C)C1=O` (plate: M 13-14), the “tryptophan fluorescence intensity z-score” value was inactive: 0.189. For the compound `C=C1[C@@H]([C@@]2(C)C=CC(=O)C(C)(C)[C@@H]2CC(=O)OC)CC[C@@]2(C)[C@H](c3ccoc3)OC(=O)[C@H]3O[C@]132` (plate: M 13-14), the “tryptophan fluorescence intensity z-score” value is inactive: 0.354.

As to `C[C@@H]1O[C@@H](OC[C@H]2O[C@@H](Oc3c(-c4ccc(OCCO)c(OCCO)c4)oc4cc(OCCO)cc(O)c4c3=O)[C@H](O)[C@@H](O)[C@@H]2O)[C@H](O)[C@H](O)[C@H]1O` (plate: M 23-24), the “tryptophan fluorescence intensity z-score” value was inactive: -0.403. In the case of `C[C@]12C=CC(=O)C=C1CC[C@H]1[C@@H]3C[C@@H](O)[C@](O)(C(=O)CO)[C@@]3(C)C[C@H](O)[C@@]12F` (plate: M 13-14) it was inactive: 0.764. In the case of `CC1(C)O[C@@H]2C[C@H]3[C@@H]4CCC5=CC(=O)CC[C@]5(C)[C@@]4(F)[C@@H](O)C[C@]3(C)[C@]2(C(=O)CCl)O1` (plate: M 13-14), the “tryptophan fluorescence intensity z-score” value is inactive: 0.742.

As for `COc1ccc(C(=O)O)c(O)c1OC` (plate: M 17-18), the “tryptophan fluorescence intensity z-score” value is inactive: 0.265. The figure for `CC(=O)O[C@H]1C[C@@H]2CC[C@@H]3[C@H](CC[C@@]4(C)[C@H]3C[C@H]([N+]3(C)CCCCC3)[C@@H]4OC(C)=O)[C@@]2(C)C[C@@H]1N1CCCCC1` (plate: M 11-12) is inactive: 0.182; for `Cc1cc(C)cc(OCC2CNC(=O)O2)c1` (centres undefined) (plate: M 9-10) it is inactive: 0.0474. Consider `O=C(O[C@@H]1Cc2c(O)cc(O)cc2O[C@@H]1c1ccc(O)c(O)c1)c1cc(O)c(O)c(O)c1` (plate: M 15-16), for which the “tryptophan fluorescence intensity z-score” value is inactive: 0.192.

Consider `CCCCCC(=O)O[C@]1(C(C)=O)CC[C@H]2[C@@H]3CCC4=CC(=O)CC[C@]4(C)[C@H]3CC[C@@]21C` (plate: M 3-4), for which the “tryptophan fluorescence intensity z-score” value was inactive: 0.0231.

Take `CC[C@H]1OC(=O)C[C@@H](O)[C@H](C)[C@@H](O[C@@H]2O[C@H](C)[C@@H](O)[C@H](N(C)C)[C@H]2O)[C@@H](CCN2C[C@H](C)C[C@H](C)C2)C[C@@H](C)C(=O)/C=C/C(C)=C/[C@@H]1CO[C@@H]1O[C@H](C)[C@@H](O)[C@@H](OC)[C@H]1OC` (plate: M 9-10): the “tryptophan fluorescence intensity z-score” value is inactive: -0.43. As to `CNCCCC12CCC(c3ccccc31)c1ccccc12` (plate: M 3-4), the “tryptophan fluorescence intensity z-score” value is inactive: -0.36.

With `Cc1coc2c1C(=O)C(=O)c1c-2ccc2c1CCCC2(C)C` (plate: M 21-22), the “tryptophan fluorescence intensity z-score” value is inactive: -0.0104. Take `OC(c1cc(C(F)(F)F)nc2c(C(F)(F)F)cccc12)C1CCCCN1` (centres undefined) (plate: M 7-8): the “tryptophan fluorescence intensity z-score” value was inactive: 0.162.

On to `CC(=O)O[C@H]1C[C@@]2(C)[C@@H](C[C@@H](O)[C@H]3[C@@]4(C)CC[C@@H](O)[C@@H](C)[C@@H]4CC[C@@]32C)/C1=C(\CCC=C(C)C)C(=O)O` (plate: M 3-4), for which the “tryptophan fluorescence intensity z-score” value is inactive: 0.13. Regarding `CC(=O)N[C@@H](CS)C(=O)O` (plate: M 1-2), the “tryptophan fluorescence intensity z-score” value was inactive: -0.196. `COc1cc(C2Oc3cc([C@H]4Oc5cc(O)cc(O)c5C(=O)[C@@H]4O)ccc3OC2CO)ccc1O` (some centres undefined) (plate: M 19-20): the “tryptophan fluorescence intensity z-score” value was inactive: 0.547. In the case of `O=c1cc(-c2ccccc2)oc2cc(O)c(O)c(O)c12` (plate: M 19-20) it was inactive: -0.768.

Take `CC(C)CCCC(C)N` (centres undefined) (plate: M 13-14): the “tryptophan fluorescence intensity z-score” value is inactive: 0.676. `COc1cccc(-c2cc(=O)c3cc(OC)ccc3o2)c1` (plate: M 19-20): the “tryptophan fluorescence intensity z-score” value is inactive: 0.0593.

On to `CC[C@H](C)C(=O)O[C@H]1C[C@@H](C)C=C2C=C[C@H](C)[C@H](CC[C@@H]3C[C@@H](O)CC(=O)O3)[C@H]21` (plate: M 9-10), for which the “tryptophan fluorescence intensity z-score” value is inactive: -0.971. In the case of `CCOC(=O)c1c(C)cc(O)c(C=O)c1O` (plate: M 21-22) it was inactive: -0.367. `CCN(CC)CCOC(=O)c1ccc(N)cc1` (plate: M 5-6): the “tryptophan fluorescence intensity z-score” value is inactive: -0.194. As for `CC(C)C[C@H](N)C(=O)N[C@@H](C)C(=O)O` (plate: M 21-22) (H-Leu-Ala-OH), the “tryptophan fluorescence intensity z-score” value was inactive: 0.432. In the case of `CC(=O)Oc1ccccc1C(=O)Oc1ccccc1C(=O)O` (plate: M 23-24), the “tryptophan fluorescence intensity z-score” value was inactive: 0.335. On to `CCCCNc1cc(C(=O)O)cc(S(N)(=O)=O)c1Oc1ccccc1` (plate: M 7-8), for which the “tryptophan fluorescence intensity z-score” value was inactive: 0.0448. As to `O=c1c(O)c(-c2ccc(O)cc2)oc2ccccc12` (plate: M 19-20), the “tryptophan fluorescence intensity z-score” value was inactive: 0.409. For the compound `CNC[C@H](O)[C@@H](O)[C@H](O)[C@H](O)CO` (plate: M 1-2), the “tryptophan fluorescence intensity z-score” value was inactive: 0.429.

In the case of `Nc1ccc(S(=O)(=O)Nc2cnc3ccccc3n2)cc1` (plate: M 7-8), the “tryptophan fluorescence intensity z-score” value is inactive: -0.036. As for `NCCCC(O)(P(=O)(O)O)P(=O)(O)O` (plate: M 9-10), the “tryptophan fluorescence intensity z-score” value was inactive: -0.344.
